# Results deposited as PubChem BioAssay AID686937 (Drosophila RNAi Screening Center, 2013).
# Test: 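Knock-downs that reduce output of a secreted reporter enzyme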 (primary screen)
# Cell system: Drosophila S2 cells expressing secreted horseradish peroxidase
# Reagent: long dsRNA against Drosophila genes
# Timing: about 5.5 days (5 days dsRNA, then 12 h reporter induction)
# Challenge: reporter expression induced after 5 days of dsRNA, read 12 h later; inducer not stated
# Measured: 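Chemiluminescent measurement of peroxidase in the medium 12 h after reporter induction, following 5 days of dsRNA, given as a z-score per plate; higher means more secretion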
# Direction: z-score: higher = more reporter secreted into medium
# The deposit covers about 23,000 reagents; shown is a random part of those that have a named target and a result. 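Reduced-secretion tags in replicate 1 do not always agree with the z-scores; no criterion for assigning the tags was given.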 The numbers tell different reagents against one gene apart. Further read-outs or replicates are left out here. No sequences are given here. Not stated in the record: the amount of reagent.
"z-score, replicate 1",gene,dsRNA no.
0,Rsph4a,1
0.21,Mf,1
0.18,CG31125,1
-0.4,bai,1
-0.09,TwdlK,1
0.23,CG34404,1
0.32,CG34404,2
0.09,CG13671,1
0.4,Elo68beta,1
0.47,CG5280,1
1.35,CG5280,2
-1.6,betaTub97EF,1
0.11,betaTub97EF,2
0.13,betaTub97EF,3
0.17,CG4270,1
-1.63,mts,1
0.35,Acbp2,1
0.37,Osi15,1
0.12,CG7131,1
0.05,Kank,1
0.1,Kank,2
0,CR15280,1
0.25,CG31460,1
-0.02,CG1394,1
0.13,CG31544 (retired record),1
0.15,sprt,1
0.19,dpr7,1
0.23,mago,1
0.49,CG13449,1
-3.55,CG13244,1
0.35,ktub,1
0.24,Wdr82,1
1,Wdr82,2
0.66,CG14190,1
0.43,CG11670,1
0.27,Dop1R2,1
0.06,Dop1R2,2
0.4,CG18327,1
0.07,mRpL37,1
-0.02,Pss,1
0.32,Arl6,1
0.35,CG14221,1
-1.25,AttD,1
0.42,spir,1
0.25,KFase,1
-0.08,Dh31-R,1
0.35,Dh31-R,2
0.25,JTBR,1
0.13,CG30383,1
-0.57,Asciz,1
0.12,NANS,1
0.28,CG7568,1
0.32,CG5928,1
0.09,fit,1
0.33,Liprin-alpha,1
-0.49,comm2,1
0.49,comm2,2
0.37,BTBD9,1
1.31,BTBD9,2
0.4,CG31388,1
0.28,PIG-A,1
0.49,CG10576,1
0.35,Tsp42Ea,1
0.35,Tsp42Ea,2
0.2,BHD,1
-0.68,BHD,2
1.14,dgt2,1
0.42,RabX5,1
0.38,CG11000,1
0.3,CG11000,2
-1.57,Sply,1
1.29,mrj,1
0.58,CG2269,1
0.2,LysB,1
0.26,frtz,1
0.17,Nup43,1
0.15,Tbcc,1
0.12,Targ,1
0.31,Aladin,1
0.46,RunxB,1
0.37,RunxB,2
-9.01,RunxB,3
